Assay results from publication PMC11955804 (Chemical Science, 2025).
Strings that start with PEPTIDE1 are HELM notation: dots part the residues, brackets hold end groups and non-standard residues.

Assay: general procedure: Fmoc solid-phase peptide synthesis; Rink Amide; Oxyma/DIC
Settings: whole synthesis, 220 nm

| Substance | final HPLC purity |
| --- | --- |
| PEPTIDE1{G.H.G.A.Y.G.H.G.A.Y.G.H.G.A.Y.G.H.G.A.Y.[am]}$$$$V2.0 | 85% |
| PEPTIDE1{G.H.G.F.Y.G.H.G.F.Y.G.H.G.F.Y.G.H.G.F.Y.[am]}$$$$V2.0 | 87% |
| PEPTIDE1{G.H.G.I.Y.G.H.G.I.Y.G.H.G.I.Y.G.H.G.I.Y.[am]}$$$$V2.0 | 98% |
| PEPTIDE1{G.H.G.N.Y.G.H.G.N.Y.G.H.G.N.Y.G.H.G.N.Y.[am]}$$$$V2.0 | 92% |
